The target in test [1] is synemin (endogenous) (human (endogenous in SAS)) (UniProt O15061). Kind of test: co-IP; immunoprecipitation of endogenous synemin from SAS cell lysates with protein A/G beads, IgG control; unirradiated cells and cells 1 h after 6-Gy X-rays; blot for DNA-PKcs.
Test [2] shares this target. Kind of test: condition: only in ATM-depleted SKX cells (ATM downregulation by miR-421 overexpression); co-IP; immunoprecipitation of endogenous synemin from SKX cells (ATM downregulated by miR-421 overexpression), unirradiated and 1 h after 6-Gy X-rays; blot for DNA-PKcs.
The target in the next test is mCherry–Synemin (human) (UniProt O15061). Kind of test: co-IP; mCherry immunoprecipitates from mCherry–Synemin-SAS cells, mCherry-SAS as control; unirradiated cells and cells 1 h after 6-Gy X-rays; blot for DNA-PKcs.
Test [3] has as its target synemin (endogenous) (human (endogenous in SAS)) (UniProt O15061). Kind of test: proximity ligation; Duolink PLA with mouse and rabbit PLUS and MINUS probes, between synemin and DNA-PKcs S2056; signal mainly nuclear.

Chains of the proteins cited; added tags and fusions are not shown.
UniProt O15061: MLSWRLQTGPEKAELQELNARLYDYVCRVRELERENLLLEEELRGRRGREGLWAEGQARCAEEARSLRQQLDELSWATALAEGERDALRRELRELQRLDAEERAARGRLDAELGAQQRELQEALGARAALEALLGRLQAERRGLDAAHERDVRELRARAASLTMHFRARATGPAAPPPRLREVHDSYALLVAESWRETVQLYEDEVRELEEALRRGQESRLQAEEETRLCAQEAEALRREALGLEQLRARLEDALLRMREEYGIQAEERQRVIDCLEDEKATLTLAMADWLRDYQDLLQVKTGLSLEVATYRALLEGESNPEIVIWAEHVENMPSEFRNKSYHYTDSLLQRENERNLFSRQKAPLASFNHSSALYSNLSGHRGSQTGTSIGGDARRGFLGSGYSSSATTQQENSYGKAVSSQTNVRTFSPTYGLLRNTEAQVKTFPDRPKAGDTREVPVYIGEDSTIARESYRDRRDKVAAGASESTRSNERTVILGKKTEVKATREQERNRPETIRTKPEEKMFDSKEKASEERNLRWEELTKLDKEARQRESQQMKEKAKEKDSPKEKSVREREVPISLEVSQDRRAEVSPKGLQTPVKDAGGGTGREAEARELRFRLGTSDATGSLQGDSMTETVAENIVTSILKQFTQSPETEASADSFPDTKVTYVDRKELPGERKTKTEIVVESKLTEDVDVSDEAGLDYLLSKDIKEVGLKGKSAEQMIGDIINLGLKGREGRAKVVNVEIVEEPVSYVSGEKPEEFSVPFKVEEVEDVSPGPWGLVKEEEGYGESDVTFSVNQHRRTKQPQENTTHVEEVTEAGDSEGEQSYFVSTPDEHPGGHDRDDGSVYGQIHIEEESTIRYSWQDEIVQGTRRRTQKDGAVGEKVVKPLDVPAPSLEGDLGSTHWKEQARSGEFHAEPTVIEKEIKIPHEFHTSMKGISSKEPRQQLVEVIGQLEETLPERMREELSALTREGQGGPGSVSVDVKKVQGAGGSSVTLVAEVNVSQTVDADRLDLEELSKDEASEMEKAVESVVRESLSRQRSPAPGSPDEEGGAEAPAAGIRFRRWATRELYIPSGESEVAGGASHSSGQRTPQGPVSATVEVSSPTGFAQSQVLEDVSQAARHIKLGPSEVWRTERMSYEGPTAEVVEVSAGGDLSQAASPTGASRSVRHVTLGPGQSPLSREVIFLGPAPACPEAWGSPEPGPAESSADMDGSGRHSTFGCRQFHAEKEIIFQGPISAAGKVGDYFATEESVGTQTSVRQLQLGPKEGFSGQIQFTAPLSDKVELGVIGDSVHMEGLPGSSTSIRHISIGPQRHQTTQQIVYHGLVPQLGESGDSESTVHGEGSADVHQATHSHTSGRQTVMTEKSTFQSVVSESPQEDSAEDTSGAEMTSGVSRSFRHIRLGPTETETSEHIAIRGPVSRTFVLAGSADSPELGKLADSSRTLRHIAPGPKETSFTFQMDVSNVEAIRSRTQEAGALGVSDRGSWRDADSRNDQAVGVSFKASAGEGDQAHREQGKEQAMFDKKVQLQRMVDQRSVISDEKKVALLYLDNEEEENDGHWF
UniProt P78527: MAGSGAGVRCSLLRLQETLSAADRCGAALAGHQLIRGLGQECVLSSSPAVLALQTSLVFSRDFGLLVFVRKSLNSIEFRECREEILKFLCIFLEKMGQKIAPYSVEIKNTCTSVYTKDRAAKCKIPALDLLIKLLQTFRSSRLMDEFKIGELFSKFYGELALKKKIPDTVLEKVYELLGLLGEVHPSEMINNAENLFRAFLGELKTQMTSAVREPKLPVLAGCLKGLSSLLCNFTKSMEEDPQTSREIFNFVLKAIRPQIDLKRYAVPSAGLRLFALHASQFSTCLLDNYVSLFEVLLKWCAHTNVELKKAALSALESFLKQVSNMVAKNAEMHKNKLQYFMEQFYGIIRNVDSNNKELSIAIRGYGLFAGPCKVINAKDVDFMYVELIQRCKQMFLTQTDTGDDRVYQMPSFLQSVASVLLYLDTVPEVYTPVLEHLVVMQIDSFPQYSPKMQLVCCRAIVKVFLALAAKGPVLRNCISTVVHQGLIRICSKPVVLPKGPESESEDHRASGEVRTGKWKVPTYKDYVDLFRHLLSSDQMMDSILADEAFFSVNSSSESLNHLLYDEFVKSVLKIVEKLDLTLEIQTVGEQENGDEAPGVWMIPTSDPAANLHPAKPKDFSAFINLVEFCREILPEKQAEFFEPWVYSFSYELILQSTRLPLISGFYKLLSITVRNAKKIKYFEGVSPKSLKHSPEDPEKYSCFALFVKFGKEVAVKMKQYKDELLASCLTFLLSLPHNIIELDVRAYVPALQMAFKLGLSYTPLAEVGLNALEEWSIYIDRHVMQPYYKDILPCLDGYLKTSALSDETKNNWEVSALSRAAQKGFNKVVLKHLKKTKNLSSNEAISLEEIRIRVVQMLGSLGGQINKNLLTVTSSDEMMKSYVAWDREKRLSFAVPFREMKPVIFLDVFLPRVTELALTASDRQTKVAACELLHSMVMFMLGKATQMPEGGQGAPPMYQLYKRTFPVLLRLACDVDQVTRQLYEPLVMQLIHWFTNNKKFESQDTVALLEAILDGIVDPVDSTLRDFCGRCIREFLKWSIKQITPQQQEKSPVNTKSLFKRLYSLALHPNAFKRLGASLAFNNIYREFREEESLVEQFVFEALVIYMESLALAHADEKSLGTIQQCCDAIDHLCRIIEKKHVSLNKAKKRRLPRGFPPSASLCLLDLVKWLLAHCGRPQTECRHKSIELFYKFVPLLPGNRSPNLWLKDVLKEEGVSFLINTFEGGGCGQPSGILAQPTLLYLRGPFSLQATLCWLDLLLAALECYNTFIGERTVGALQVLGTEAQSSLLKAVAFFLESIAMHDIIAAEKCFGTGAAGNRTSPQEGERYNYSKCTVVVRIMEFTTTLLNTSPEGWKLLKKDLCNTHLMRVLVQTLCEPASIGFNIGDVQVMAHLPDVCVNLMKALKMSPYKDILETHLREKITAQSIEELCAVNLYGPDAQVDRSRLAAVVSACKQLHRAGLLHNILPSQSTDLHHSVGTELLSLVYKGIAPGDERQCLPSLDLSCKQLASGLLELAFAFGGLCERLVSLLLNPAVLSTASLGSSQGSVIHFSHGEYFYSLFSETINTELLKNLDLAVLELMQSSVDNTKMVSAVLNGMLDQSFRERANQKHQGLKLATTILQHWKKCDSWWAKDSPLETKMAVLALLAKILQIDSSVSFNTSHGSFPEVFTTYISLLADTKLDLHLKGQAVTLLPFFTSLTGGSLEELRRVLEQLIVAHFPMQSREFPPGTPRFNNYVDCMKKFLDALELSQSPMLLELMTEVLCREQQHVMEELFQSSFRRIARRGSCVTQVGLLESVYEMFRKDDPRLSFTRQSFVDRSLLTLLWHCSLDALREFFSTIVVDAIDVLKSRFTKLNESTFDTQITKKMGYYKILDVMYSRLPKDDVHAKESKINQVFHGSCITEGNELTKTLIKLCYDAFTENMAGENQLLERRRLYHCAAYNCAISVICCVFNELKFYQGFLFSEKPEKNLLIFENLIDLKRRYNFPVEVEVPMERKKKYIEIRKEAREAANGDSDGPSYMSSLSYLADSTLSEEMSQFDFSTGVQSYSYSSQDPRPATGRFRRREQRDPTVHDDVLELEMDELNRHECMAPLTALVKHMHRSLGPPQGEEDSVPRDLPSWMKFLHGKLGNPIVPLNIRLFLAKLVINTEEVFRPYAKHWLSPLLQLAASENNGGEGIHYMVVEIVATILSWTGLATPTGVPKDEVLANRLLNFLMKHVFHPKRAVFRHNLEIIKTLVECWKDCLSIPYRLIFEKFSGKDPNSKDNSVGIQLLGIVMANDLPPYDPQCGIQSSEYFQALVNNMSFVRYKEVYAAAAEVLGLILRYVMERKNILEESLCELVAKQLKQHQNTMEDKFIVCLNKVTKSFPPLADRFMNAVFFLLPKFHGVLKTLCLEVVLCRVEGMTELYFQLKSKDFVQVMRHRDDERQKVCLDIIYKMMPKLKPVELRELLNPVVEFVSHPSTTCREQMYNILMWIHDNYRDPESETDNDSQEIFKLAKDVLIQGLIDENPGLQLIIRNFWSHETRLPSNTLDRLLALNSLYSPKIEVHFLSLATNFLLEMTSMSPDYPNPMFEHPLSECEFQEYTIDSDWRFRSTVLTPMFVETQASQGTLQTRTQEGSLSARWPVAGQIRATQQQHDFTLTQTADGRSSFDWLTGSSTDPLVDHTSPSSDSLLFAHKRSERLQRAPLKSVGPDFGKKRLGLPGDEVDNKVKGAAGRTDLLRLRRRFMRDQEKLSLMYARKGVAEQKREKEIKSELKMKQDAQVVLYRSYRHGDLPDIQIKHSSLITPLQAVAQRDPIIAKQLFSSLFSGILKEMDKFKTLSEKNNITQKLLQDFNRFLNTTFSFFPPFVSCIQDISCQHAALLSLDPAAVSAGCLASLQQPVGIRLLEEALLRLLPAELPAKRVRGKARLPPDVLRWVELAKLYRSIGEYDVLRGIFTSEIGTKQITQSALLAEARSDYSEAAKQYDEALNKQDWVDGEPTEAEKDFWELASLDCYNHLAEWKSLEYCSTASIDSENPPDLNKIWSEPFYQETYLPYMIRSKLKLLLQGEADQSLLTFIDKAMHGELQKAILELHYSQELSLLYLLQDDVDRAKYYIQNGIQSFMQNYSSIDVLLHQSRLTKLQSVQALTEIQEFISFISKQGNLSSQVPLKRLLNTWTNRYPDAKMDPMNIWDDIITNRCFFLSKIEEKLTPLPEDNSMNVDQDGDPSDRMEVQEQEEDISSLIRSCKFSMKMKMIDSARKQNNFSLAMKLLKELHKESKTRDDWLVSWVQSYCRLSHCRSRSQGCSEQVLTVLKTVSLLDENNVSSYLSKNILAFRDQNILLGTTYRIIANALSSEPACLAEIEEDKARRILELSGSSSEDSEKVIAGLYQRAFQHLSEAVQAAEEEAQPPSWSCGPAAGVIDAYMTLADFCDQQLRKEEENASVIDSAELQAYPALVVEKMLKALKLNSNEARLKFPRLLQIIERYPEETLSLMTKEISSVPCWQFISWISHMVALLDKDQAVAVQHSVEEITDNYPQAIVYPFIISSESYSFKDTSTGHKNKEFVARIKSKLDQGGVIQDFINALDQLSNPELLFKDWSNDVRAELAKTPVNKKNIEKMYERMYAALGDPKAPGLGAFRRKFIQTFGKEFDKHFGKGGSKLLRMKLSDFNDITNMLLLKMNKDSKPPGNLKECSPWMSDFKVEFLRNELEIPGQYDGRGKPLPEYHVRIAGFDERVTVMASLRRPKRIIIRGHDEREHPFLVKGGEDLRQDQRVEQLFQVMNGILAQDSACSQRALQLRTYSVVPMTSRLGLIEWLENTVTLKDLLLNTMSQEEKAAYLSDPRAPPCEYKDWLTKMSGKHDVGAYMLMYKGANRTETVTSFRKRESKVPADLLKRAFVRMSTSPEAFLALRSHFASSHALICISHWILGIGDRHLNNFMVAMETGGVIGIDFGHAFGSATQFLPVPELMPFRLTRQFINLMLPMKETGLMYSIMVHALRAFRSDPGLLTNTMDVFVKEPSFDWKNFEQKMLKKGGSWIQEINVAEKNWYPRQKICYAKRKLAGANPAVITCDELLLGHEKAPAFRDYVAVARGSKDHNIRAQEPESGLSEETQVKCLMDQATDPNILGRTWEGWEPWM

These are yes or no findings as the source states them, for the method shown. In cells and extracts the contact can be indirect. Some entries that bind do so weakly or less than the wild type.

Regarding “DNA protein kinase catalytic subunit (DNA-PKcs) (from UniProt P78527 1-4128)”, the binding entry in test [1] is recorded as “binds”; in test [2] it was “no binding”; in the test with mCherry–Synemin (human), “binds”.

Turning to “DNA-PKcs S2056 (phosphorylated form of DNA-PKcs) (from UniProt P78527 1-4128)”, in test [3], the binding result was “binds”.
